The text below walks through data of paper PMC7819943, “Rice protein-binding microarrays: a tool to detect cis-acting elements near promoter regions in rice”.

The chains behind the UniProt entries cited, without tags or fusion partners.
UniProt Q0JBA9, entry or part of it: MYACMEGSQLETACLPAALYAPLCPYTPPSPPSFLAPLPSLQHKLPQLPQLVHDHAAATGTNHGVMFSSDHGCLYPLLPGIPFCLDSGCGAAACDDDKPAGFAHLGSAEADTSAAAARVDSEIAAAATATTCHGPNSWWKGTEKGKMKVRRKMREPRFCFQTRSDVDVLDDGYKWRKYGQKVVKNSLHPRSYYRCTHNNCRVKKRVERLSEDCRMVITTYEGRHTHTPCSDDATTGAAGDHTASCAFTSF

The other results are listed elsewhere or left out.

The target in this experiment is OsWRKY34 (Oryza sativa, UniProt Q0JBA9 1-250). As to the kind of experiment: protein-binding microarray (RPBM); PBS, 2% BSA, 51.3 ng/ul salmon testes DNA, 50 uM zinc acetate, 200 nM TF, 25 C, 1 h; high values mean tight binding. Conditions: protein: recombinant; tags: N-terminal polyhistidine and DsRed monomer fusion (pET32a); label: CyDye5-dUTP incorporated in the synthesized complementary strand; 3' TTTTT single-stranded linker to array surface; dsDNA, one strand shown. An outline of the steps: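 Using Ni–NTA, transcription factors fused N-terminally to polyhistidine and DsRed were purified after expression in E. coli BL21-CodonPlus. These were incubated at 200 nM with a blocked, double-stranded custom Agilent array for 1 h at 25 °C in a buffer containing 50 µM zinc acetate, and the array was washed. The binding signal is per-feature fluorescence intensity (arbitrary units) on an Axon 4000B scanner.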
With “TTTATGATCACATATGTGATACGTTCTTATCTTTATGTTGCGGAGTCACCTAGTGCAG”, the binding signal was 8230 fluorescence intensity (a.u.). The value for “GATCCGTTGATTCATTTCCTTCCAAATTTCCCACACAATGCGGAGTCACCTAGTGCAG” was 11900 fluorescence intensity (a.u.). The value for “CAATTGACAGGTCTTTGTTTGTTTTGTTTTTTTTTTTGCCCGGAGTCACCTAGTGCAG” was 9690 fluorescence intensity (a.u.). In the case of “CTGAGCTTCACGCCGTCCTCGCTCGCCGCGCTAAAAATTTCGGAGTCACCTAGTGCAG” it was 8890 fluorescence intensity (a.u.).

“TAAATATGGACCCACGTGTTATCATGCACACGCCCACATCCGGAGTCACCTAGTGCAG”: the binding signal is 10500 fluorescence intensity (a.u.). The value for “CCGCCGCGCCGCTCGCCGCCTCCGCCACCGCCTCCGCCGGCGGAGTCACCTAGTGCAG” was 12100 fluorescence intensity (a.u.).

Regarding “ACCCGAGATCTTTTATTGGTTTTGACTTCGGTTTTGGTATCGGAGTCACCTAGTGCAG”, the binding signal is 9660 fluorescence intensity (a.u.). As to “GCCATCCGCATGCATGCACGTGAACTACTCGATCCACCGCCGGAGTCACCTAGTGCAG”, the binding signal is 10400 fluorescence intensity (a.u.). In the case of “TACTCAAACTTAATATTAACTACTCTCTCCATTTCATATTCGGAGTCACCTAGTGCAG” it was 10500 fluorescence intensity (a.u.); in that of “GTACTATCGTCACTTGACATGCGCATGGCTTCAACTGAGTCGGAGTCACCTAGTGCAG”, 8300 fluorescence intensity (a.u.). The value for “AAACACCATACTTCTTGTATTTGGACGGGCGGTAATTCACCGGAGTCACCTAGTGCAG” was 8430 fluorescence intensity (a.u.). Consider “TGATCGCCGTGGTATCCTGTTGCGGTTTGTTTCGTGGTGTCGGAGTCACCTAGTGCAG”, for which the binding signal is 8930 fluorescence intensity (a.u.). For “AAATTATTTTCTCCCGATATTTGTTCATATTCAGGACTGACGGAGTCACCTAGTGCAG”, the binding signal is 8160 fluorescence intensity (a.u.). In the case of “GTGTTGTGTTCATCTCCTTCGTTTACTTCTCTTCTCCTCTCGGAGTCACCTAGTGCAG” it was 11500 fluorescence intensity (a.u.); in that of “CAAACCCCAACCCTCGTTGACCCTTCGCAACCAAATCCCTCGGAGTCACCTAGTGCAG”, 10800 fluorescence intensity (a.u.); in that of “TCAGGCCATATGCATTTCTGTACAGCTTACCTCGGATGATCGGAGTCACCTAGTGCAG”, 10700 fluorescence intensity (a.u.).

For “TCTGGTCTCTTCTCCTCTCTTCGTCTTCGTCTTTGCCCATCGGAGTCACCTAGTGCAG”, the binding signal is 9840 fluorescence intensity (a.u.).

As for “CCGTACTTATCTACTTATCATCTACGTGTACCGTGTTTATCGGAGTCACCTAGTGCAG”, the binding signal was 8300 fluorescence intensity (a.u.). In the case of “GACGAGTAGTATTGTGTGGTGTGCATGTGTAGGGAGGGCACGGAGTCACCTAGTGCAG” it was 9500 fluorescence intensity (a.u.); in that of “TCTATATTGCTATTTTCATTTTAAAACTATTTCTTGCCACCGGAGTCACCTAGTGCAG”, 10300 fluorescence intensity (a.u.); in that of “GATGACACTTTGACCACCCTCAACACTTTTATCTATCTATCGGAGTCACCTAGTGCAG”, 9680 fluorescence intensity (a.u.). Take “GTAGCCGTGGACTCGCCGTACCTTTTTTGCTTTGCTTCCCCGGAGTCACCTAGTGCAG”: the binding signal is 10100 fluorescence intensity (a.u.). In the case of “TGAACCCATTTTTCCGTGCGGAACAAGTTACCGTCCGCACCGGAGTCACCTAGTGCAG” it was 8330 fluorescence intensity (a.u.). In the case of “GGCACCATTTCCTTCTCGTCCTCTTCCGAGTTTCCGACCCCGGAGTCACCTAGTGCAG” it was 8430 fluorescence intensity (a.u.). As for “CAAGGCCATATTGATATATCCATTATATACACACCTCAATCGGAGTCACCTAGTGCAG”, the binding signal was 8120 fluorescence intensity (a.u.). The value for “CGGTGCGCTCTTTGTGTGTGATCTCTTTGGTCGCCGGCGGCGGAGTCACCTAGTGCAG” was 8840 fluorescence intensity (a.u.); that for “ATCAAGAGAGATATGGGGAGGGTCGGTAGGGATCAGACTTCGGAGTCACCTAGTGCAG” was 9080 fluorescence intensity (a.u.); that for “ATGTACTGGTGATCTTTAGTTTACCTCTGGAAGTTAGTGTCGGAGTCACCTAGTGCAG” was 8330 fluorescence intensity (a.u.). In the case of “TCGGGCGGTTTAAGTAGGTTTTCATTTTCTTCGCAGCTTCCGGAGTCACCTAGTGCAG” it was 10200 fluorescence intensity (a.u.); in that of “TATTCCTAGCTGGTTGAGGTCGCGAAGGTTGACGCTGTTCCGGAGTCACCTAGTGCAG”, 10600 fluorescence intensity (a.u.); in that of “TCTTACTATCGATTTTAATTGTGATTTTATTCCTACTTTTCGGAGTCACCTAGTGCAG”, 10100 fluorescence intensity (a.u.). The value for “CAGTGGCGGGATTGGAAGAGGGCACTCAGGTGTTGGGTCTCGGAGTCACCTAGTGCAG” was 8610 fluorescence intensity (a.u.). Take “TCACCATCCACCATCTCGCTTTCTGGGCTGGCTCGTCAGGCGGAGTCACCTAGTGCAG”: the binding signal was 10500 fluorescence intensity (a.u.). The value for “GAAAAAAATGTAAAAACTGTTGACTTTTAGTCAACGCCATCGGAGTCACCTAGTGCAG” was 16400 fluorescence intensity (a.u.); that for “CATTTTCTTTCACGACTGTTTTCTTCAACTTCATAATCTCCGGAGTCACCTAGTGCAG” was 10200 fluorescence intensity (a.u.).

Regarding “TTTGCCATCTCTTTCTTTCTGGGCTGCTTTCACCTTTTGCCGGAGTCACCTAGTGCAG”, the binding signal was 8930 fluorescence intensity (a.u.). In the case of “TTAATGTATGACACTGTTGACTTTTTTTCCAACGTTTGACCGGAGTCACCTAGTGCAG” it was 21900 fluorescence intensity (a.u.); in that of “ATTGGGTTCCTATATAGACTCCTCTTTCCATATTGCTTTTCGGAGTCACCTAGTGCAG”, 10100 fluorescence intensity (a.u.); in that of “ACTCCCGGTCCCATGTCACCGACACATGTACATCTCAGCACGGAGTCACCTAGTGCAG”, 8650 fluorescence intensity (a.u.). The value for “TCCGCTTCTCTTCTCTTCTCTTCTGGTCTCGCTGTTAGATCGGAGTCACCTAGTGCAG” was 8430 fluorescence intensity (a.u.); that for “CCGTGGGCCAGACCTTTTTCTTCGACGCTAGACCTGACTACGGAGTCACCTAGTGCAG” was 9780 fluorescence intensity (a.u.); that for “AGTTTCAAGGTGTTCTTTAGCTTTCTATGTTCTGTTGGGGCGGAGTCACCTAGTGCAG” was 10600 fluorescence intensity (a.u.).
